In the supplement of paper PMC6078165:
The reference is the same well before dosing, and untreated signal decays as well.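 Fibroblast labels denote human fibroblasts, mainly primary ones from uterus (C12385, HUF), lung (H6013), bone (Hs27A), adrenal (HADF) and skin (WS1), plus mammary HMF and breast cancer-associated Hs343T. Cancer cells are basal-like or mesenchymal-like triple-negative breast cancer lines. A hit is a response shift exceeding 3x replicate standard deviation. The tissue of the other fibroblasts is not given here.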

Tested on: MDAMB468
Assay: relative JC-1 red fluorescence (viability) vs pre-drug, coculture with fibroblast (fraction); higher = more viable cancer cells
Conditions: 100 µM
Procedure: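 JC-1 labelled TNBC cells cocultured 1:1 (1,500 cells each) with CellTrace Violet stained primary or stromal fibroblasts in 384-well plates in FluoroBrite medium, treated with one of 42 anticancer drugs at 0.1, 1, 10 or 100 uM. JC-1 red fluorescence (mitochondrial integrity in cancer cells only) was read by plate reader every 8 h for 72 h. Values are normalised to each well's pre-drug value. The stock of one drug was tenfold lower, so its dose labels may be too high.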

COc1cc([C@@H]2c3cc4c(cc3[C@@H](O[C@@H]3O[C@@H]5CO[C@@H](c6cccs6)O[C@H]5[C@H](O)[C@H]3O)[C@H]3COC(=O)[C@H]23)OCO4)cc(OC)c1O [Teniposide]
relative JC-1 red fluorescence
Conditions | 8 h | 16 h | 24 h | 32 h | 40 h | 48 h | 56 h | 64 h | 72 h
coculture fibroblast: C12385 | 0.934 | 0.951 | 0.953 | 0.919 | 0.895 | 0.908 | 0.863 | 0.842 | 0.835
coculture fibroblast: H6013 | 0.94 | 0.925 | 0.901 | 0.828 | 0.818 | 0.848 | 0.754 | 0.915 | 0.89
coculture fibroblast: H6019 | 0.875 | 0.8546 | 0.832 | 0.845 | 0.887 | 0.916 | 0.906 | 0.914 | 0.929
coculture fibroblast: H6076 | 0.984 | 0.8313 | 0.791 | 0.891 | 0.915 | 0.858 | 0.808 | 0.903 | 0.911
coculture fibroblast: H6231 | 0.876 | 0.936 | 0.9527 | 0.95664 | 0.909 | 0.9248 | 0.89 | 0.87 | 0.8871
coculture fibroblast: HADF | 0.885 | 0.773 | 0.783 | 0.816 | 0.808 | 0.833 | 0.78 | 0.725 | 0.866
coculture fibroblast: HCFa | 0.9525 | 0.979 | 0.9736 | 0.828 | 0.80336 | 0.756 | 0.757 | 0.85 | 0.717
coculture fibroblast: HCPF | 0.962 | 0.839 | 0.79 | 0.796 | 0.899 | 0.844 | 0.782 | 0.822 | 0.887
coculture fibroblast: HHSteC | 0.915 | 0.863 | 0.747 | 0.873 | 0.847 | 0.785 | 0.789 | 0.85 | 0.832
coculture fibroblast: HMF | 0.939 | 0.867 | 0.832 | 0.872 | 0.904 | 0.852 | 0.9784 | 0.863 | 0.947
coculture fibroblast: HPFa | 0.891 | 0.855 | 0.775 | 0.812 | 0.851 | 0.831 | 0.876 | 0.844 | 0.958
coculture fibroblast: HUF | 0.941 | 0.938 | 0.972 | 0.924 | 0.909 | 0.892 | 0.8587 | 0.875 | 0.8588
coculture fibroblast: Hs5 | 0.824 | 0.771 | 0.7044 | 0.891 | 0.845 | 0.816 | 0.979 | 0.9609 | 0.983
coculture fibroblast: Hs27A | 0.9507 | 0.838 | 0.866 | 0.779 | 0.74 | 0.796 | 0.882 | 0.864 | 0.787
coculture fibroblast: Hs343T | 0.93 | 0.9885 | 0.917 | 0.819 | 0.883 | 0.89 | 0.878 | 0.877 | 0.901
coculture fibroblast: WS1 | 0.948 | 0.9457 | 0.93 | 0.884 | 0.8559 | 0.8236 | 0.802 | 0.786 | 0.78
